This is an account of results in the supplement of paper PMC7125110.

B1: glmS ribozyme (parent)
chain: AUAAAAGCGCCAGAACUACAGAAAUGUAGUUGACGAGGAGGAGGUUUAUCGAAUUUUCGGCGGAUGCCUCCAAA

± gives the standard error. Many of these values have a large error.

In one data set the parent is B1. In words: self-cleavage kobs at 2500 uM GlcN6P; higher = faster cleavage; RNA array. Conditions: with glucosamine-6-phosphate. Put shortly: (§1)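 Tiles bearing barcoded ribozyme variants, transcribed in situ by E. coli RNA polymerase on sequenced MiSeq chips, were imaged over ~14 h at 37 °C using a hybridised Cy3 probe. Glucosamine-6-phosphate was supplied at 40 μM to 10 mM in HEPES/KCl/Mg(OAc)2 buffer. kobs came from one- or two-exponential decay fits to normalised per-tile medians, and weighted Michaelis–Menten fits then provided kcat and KM.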
Consider G29C U65C, for which the “self-cleavage kobs at 2500 uM GlcN6P” value was determined as 3.57e-05 ± 2e-05 s⁻¹. The same measure, in the same setting: under A15U A42U stands 2.31e-05 ± 1.7e-05 s⁻¹; under U49G G51A C68G, 5.65e-05 ± 4.1e-05 s⁻¹. Same read-out and setting: under G40A U45C U65C stands 3.07e-05 ± 2.5e-05 s⁻¹; under U47C U55C C70G, 2.81e-05 ± 2.5e-05 s⁻¹; under G41C A42U, 3.04e-05 ± 2.2e-05 s⁻¹. Still for that read-out and setting: under A15C G32U U55G C58G U69G stands 9.28e-05 ± 5.1e-05 s⁻¹; under A15U A33G U47G U54G C67U C71A, 9.21e-05 ± 5.6e-05 s⁻¹. Regarding A15G A36G C68G, the “self-cleavage kobs at 2500 uM GlcN6P” value was 3.68e-05 ± 3.6e-05 s⁻¹. Still for that read-out and setting: under U45A C68G stands 2.18e-05 ± 1.6e-05 s⁻¹; under U49A U54A C70G, 0.00156 ± 0.0014 s⁻¹; under G32C G62A C68U C71G, 5.2e-05 ± 4.4e-05 s⁻¹. Still for that read-out and setting: the figure for C16G U55G U69A is 4.77e-05 ± 2.6e-05 s⁻¹; for C19A G43A it is 2.99e-05 ± 2.4e-05 s⁻¹. Same read-out and setting: under A64G U65G G66U C70G stands 2.6e-05 ± 2.5e-05 s⁻¹; under C16A C50G G59U, 2.93e-05 ± 2.1e-05 s⁻¹; under A42U C70G, 1.59e-05 ± 1.2e-05 s⁻¹. Take G43A C68A: the “self-cleavage kobs at 2500 uM GlcN6P” value came to 2.73e-05 ± 1.6e-05 s⁻¹. Still for that read-out and setting: under A53C U57A C68G C70U stands 0.000617 ± 0.00037 s⁻¹; under A52U U65G, 2e-05 ± 1.1e-05 s⁻¹; under G32C C71A, 2.4e-05 ± 1.8e-05 s⁻¹. With U57G C58A, the “self-cleavage kobs at 2500 uM GlcN6P” value was 6.19e-05 ± 3.2e-05 s⁻¹. Still for that read-out and setting: the figure for G29U U57G is 2.24e-05 ± 2.1e-05 s⁻¹; for G41A A52U it is 3.37e-05 ± 2.8e-05 s⁻¹.

On to G43A A53U, for which the “self-cleavage kobs at 2500 uM GlcN6P” value turned out to be 3.15e-05 ± 1.6e-05 s⁻¹. Still for that read-out and setting: the figure for C34U G51A is 2.52e-05 ± 1.4e-05 s⁻¹; for A64C U65A it is 3.98e-05 ± 2.4e-05 s⁻¹; for G44C U55A it is 2.78e-05 ± 1.9e-05 s⁻¹. Same read-out and setting: under C58U C61G G66A C67A stands 4.33e-05 ± 3.1e-05 s⁻¹; under U54C G62U U69A, 3.35e-05 ± 2.4e-05 s⁻¹; under C50G C61U A64G, 5.74e-05 ± 3.3e-05 s⁻¹. On the same count and under the same terms, the figure for G41U U55G C68U C70U is 3.33e-05 ± 2e-05 s⁻¹. For the variant U47G C61U, the “self-cleavage kobs at 2500 uM GlcN6P” value is 2.53e-05 ± 1.3e-05 s⁻¹. Still for that read-out and setting: under A39U U54A stands 0.0056 ± 0.004 s⁻¹; under A15U A53U U57C, 3.44e-05 ± 3e-05 s⁻¹. Still for that read-out and setting: the figure for U47G U57G A64G is 2.12e-05 ± 1.9e-05 s⁻¹; for G37A C50G U69C it is 3.55e-05 ± 2e-05 s⁻¹; for C16G A52U it is 3.89e-05 ± 2.3e-05 s⁻¹. The same measure, in the same setting: the figure for C50A C61G is 2.94e-05 ± 2.4e-05 s⁻¹; for U45G U69C it is 0.0334 ± 0.026 s⁻¹; for G29U U49C C50G C70A it is 3.73e-05 ± 2e-05 s⁻¹. Take A39G A52U U55C G66U: the “self-cleavage kobs at 2500 uM GlcN6P” value is 3.21e-05 ± 2.8e-05 s⁻¹. The same measure, in the same setting: under G37A A53G C58A stands 3.64e-05 ± 2.5e-05 s⁻¹; under G37C U69G C71A, 3.59e-05 ± 3e-05 s⁻¹; under G29C U46A U54A, 4.25e-05 ± 3.4e-05 s⁻¹. On to A33U U47C, for which the “self-cleavage kobs at 2500 uM GlcN6P” value was found to be 0.004 ± 0.0033 s⁻¹. Take G43U U55A: the “self-cleavage kobs at 2500 uM GlcN6P” value worked out at 1.59e-05 ± 9.6e-06 s⁻¹. Still for that read-out and setting: under G40C U56A C70A stands 3.8e-05 ± 2.1e-05 s⁻¹; under C19A G32C A39U, 2.55e-05 ± 1.6e-05 s⁻¹.

Regarding C16A G32A C71A, the “self-cleavage kobs at 2500 uM GlcN6P” value was 2.95e-05 ± 2.6e-05 s⁻¹.

With A48G U56C, the “self-cleavage kobs at 2500 uM GlcN6P” value is 2.11e-05 ± 1.4e-05 s⁻¹.

Turning to G41U U65G, the “self-cleavage kobs at 2500 uM GlcN6P” value was 0.00072 ± 0.00051 s⁻¹.

With A15U U65C C67G, the “self-cleavage kobs at 2500 uM GlcN6P” value came out at 2.89e-05 ± 2.3e-05 s⁻¹.

Variants of B1 are the subject of the next data set. In words: self-cleavage kobs at 10000 uM GlcN6P; higher = faster cleavage; RNA array. Conditions: with glucosamine-6-phosphate. The essentials: as §1
Take G29C C70A: the “self-cleavage kobs at 10000 uM GlcN6P” value was 2.2e-05 ± 1.2e-05 s⁻¹. On to A6U A15G C67A C71U, for which the “self-cleavage kobs at 10000 uM GlcN6P” value came to 2.57e-05 ± 2e-05 s⁻¹. Consider G13U G41C U49G C70G, for which the “self-cleavage kobs at 10000 uM GlcN6P” value is 2.66e-05 ± 1.5e-05 s⁻¹.

Consider C11U C50G, for which the “self-cleavage kobs at 10000 uM GlcN6P” value is 0.000145 ± 0.00011 s⁻¹.

On to A15U U30A A53U C58A U65C U69A C71G, for which the “self-cleavage kobs at 10000 uM GlcN6P” value turned out to be 2.02e-05 ± 1.9e-05 s⁻¹. The same measure, in the same setting: the figure for C11U G66C is 1.94e-05 ± 1.6e-05 s⁻¹.

Take U45A C68G: the “self-cleavage kobs at 10000 uM GlcN6P” value came to 3.02e-05 ± 1.6e-05 s⁻¹. Still for that read-out and setting: the figure for C11U A39G A52U is 2.86e-05 ± 1.7e-05 s⁻¹; for A6G A53C it is 3.12e-05 ± 1.6e-05 s⁻¹; for C19A G43U it is 2.32e-05 ± 2.3e-05 s⁻¹.

For C10U A14U G32A, the “self-cleavage kobs at 10000 uM GlcN6P” value turned out to be 2.38e-05 ± 1.9e-05 s⁻¹. Still for that read-out and setting: under G29U G44U stands 2.12e-05 ± 1.5e-05 s⁻¹. The same measure, in the same setting: under G29U G44C stands 2.35e-05 ± 1.6e-05 s⁻¹. For A12U U69G C70A, the “self-cleavage kobs at 10000 uM GlcN6P” value is 2.2e-05 ± 1.4e-05 s⁻¹. The same measure, in the same setting: the figure for C16U U30G C50G is 3.13e-05 ± 2.5e-05 s⁻¹; for G32C C71A it is 1.52e-05 ± 1.2e-05 s⁻¹. Same read-out and setting: the figure for U57G C58A is 2.06e-05 ± 1.6e-05 s⁻¹; for G43A A53U it is 1.86e-05 ± 1.4e-05 s⁻¹; for A64C U65A it is 2.5e-05 ± 1.7e-05 s⁻¹. Same read-out and setting: the figure for C16G A52G C58G is 2.43e-05 ± 2.2e-05 s⁻¹; for C8A C50U C67U C70G it is 3.07e-05 ± 2.3e-05 s⁻¹; for G29A A52U C70U it is 5.28e-05 ± 2.8e-05 s⁻¹.

As to U47G C61U, the “self-cleavage kobs at 10000 uM GlcN6P” value was found to be 1.54e-05 ± 1.3e-05 s⁻¹. The same measure, in the same setting: the figure for C11A U31C C71U is 2.5e-05 ± 1.5e-05 s⁻¹. The same measure, in the same setting: the figure for C11G A12U A33G A36G A39G C50G C67G is 2.1e-05 ± 1.7e-05 s⁻¹. Still for that read-out and setting: the figure for U30C A53U U57G A64C U69G is 2.28e-05 ± 1.8e-05 s⁻¹; for A24C G43U U47A it is 3.96e-05 ± 2.2e-05 s⁻¹; for A12G G29U U31C U47A it is 3.6e-05 ± 2.7e-05 s⁻¹. Regarding G43U U55A, the “self-cleavage kobs at 10000 uM GlcN6P” value is 2.1e-05 ± 1.7e-05 s⁻¹. C11U A12U U57A: the “self-cleavage kobs at 10000 uM GlcN6P” value is 3.21e-05 ± 1.7e-05 s⁻¹. For the variant C11A G43U C68U, the “self-cleavage kobs at 10000 uM GlcN6P” value is 3.07e-05 ± 2.5e-05 s⁻¹. The same measure, in the same setting: under G7U G37A C58U U69G stands 3.26e-05 ± 2.1e-05 s⁻¹; under A12G A39U U49G U55G, 2.59e-05 ± 1.8e-05 s⁻¹.
